The values below come from article PMC7722926.

Amino acid sequences for entries named in this document (tags omitted).
UniProt Q9Y265: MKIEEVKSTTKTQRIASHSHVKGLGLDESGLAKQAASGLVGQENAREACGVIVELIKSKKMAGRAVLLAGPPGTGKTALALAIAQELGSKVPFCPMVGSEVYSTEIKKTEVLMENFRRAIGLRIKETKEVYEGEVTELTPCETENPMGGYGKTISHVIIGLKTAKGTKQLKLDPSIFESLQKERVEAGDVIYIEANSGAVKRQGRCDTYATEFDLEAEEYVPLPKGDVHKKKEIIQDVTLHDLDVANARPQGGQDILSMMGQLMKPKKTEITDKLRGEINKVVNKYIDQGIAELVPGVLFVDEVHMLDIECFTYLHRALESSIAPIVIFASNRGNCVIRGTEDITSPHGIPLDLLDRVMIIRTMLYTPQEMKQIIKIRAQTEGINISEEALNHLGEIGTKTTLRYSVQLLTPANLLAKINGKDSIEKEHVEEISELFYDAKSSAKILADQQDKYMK

For this test, the target named is T1, Flag-tagged CARM1 (coactivator-associated arginine methyltransferase 1) (UniProt Q86X55).
T1 sequence: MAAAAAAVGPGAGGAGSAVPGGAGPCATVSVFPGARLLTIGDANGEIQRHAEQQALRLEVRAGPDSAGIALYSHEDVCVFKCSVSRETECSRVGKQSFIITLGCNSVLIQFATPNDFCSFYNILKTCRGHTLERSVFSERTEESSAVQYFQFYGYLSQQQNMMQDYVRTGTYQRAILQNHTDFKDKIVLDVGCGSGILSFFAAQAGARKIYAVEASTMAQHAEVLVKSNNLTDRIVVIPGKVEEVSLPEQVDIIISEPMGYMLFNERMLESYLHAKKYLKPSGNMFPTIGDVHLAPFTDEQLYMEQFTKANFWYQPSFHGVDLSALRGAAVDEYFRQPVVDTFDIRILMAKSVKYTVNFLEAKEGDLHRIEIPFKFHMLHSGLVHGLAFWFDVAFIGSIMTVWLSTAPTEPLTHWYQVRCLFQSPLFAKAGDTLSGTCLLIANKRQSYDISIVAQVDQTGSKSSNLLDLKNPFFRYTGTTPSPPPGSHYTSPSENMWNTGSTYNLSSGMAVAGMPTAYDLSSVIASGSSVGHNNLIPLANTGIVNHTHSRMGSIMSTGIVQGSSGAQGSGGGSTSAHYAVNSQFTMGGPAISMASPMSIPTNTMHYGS
The test can be described thus: affinity purification with mass spectrometry; Flag-CARM1 from HEK293T extracts on Flag-M2 affinity gel, wash with 150 mM KCl, 0.05% Nonidet P40, elution with Flag peptide, SDS-PAGE, LC-MS/MS; glucose starvation.

These are yes or no findings as the source states them, for the method shown. In cells and extracts the contact can be indirect. A yes stands for co-enrichment or nearness to the bait. Other partners may have been found. Where a sequence is shown, tags or fusion partners need not be part of it.

Regarding “Pontin chromatin-remodeling factor (endogenous, HEK293T) (from UniProt Q9Y265 1-456)”, the binding entry was “binds”.
